For at least one compound, name, drawing or mass did not settle the structure.
System: obsessive compulsive disorder (OCD), anxiety, paranoid delusions
Experiment: Case History 5: patient treated with gabapentin
Assay type: in vivo, human
Settings: inpatient, March 1994
Text: The patient is a single person who is still studying at University. Their medical history is unremarkable. The patient was first seen by a psychiatrist and followed for obsessive compulsive disorder (OCD) in the United Emirates; the patient tended toward isolativeness. Also, they developed a tic disorder and complained of anxiety.
In February 1994, the patient developed intense paranoid ideation and became more withdrawn. Over the previous two years, the patient had suffered from paranoid delusions and auditory hallucinations. They stopped taking their neuroleptic medication in mid-December while they were a University student. They were admitted as an inpatient in March 1994. […] The patient was discharged with clozapine and lorazepam. In June, the patient was referred for Follow-Up where an anticonvulsant drug, valproic acid was added to potentiate clozapine, but discontinued in August 1994.
In February 1995, gabapentin was added to the patient's treatment. […] Currently, the patient takes clozpine 125 mg BID, […], gabapentin 500 mg HS and procyclidine 5 mg BID.

CN1CCN(C2=Nc3cc(Cl)ccc3Nc3ccccc32)CC1 [clozapine]
psychotic symptoms (paranoid delusions, auditory hallucinations): psychotic symptoms improved considerably

Reference: patent publication US6372792B1, “Method for treating anxiety, anxiety disorders and insomnia” (priority 1996, dated 2002)
